Measurements from patent publication US20170362283A1, “NISIN-BASED COMPOUNDS AND USE THEREOF IN THE TREATMENT OF BACTERIAL INFECTIONS” (UNIVERSITEIT UTRECHT HOLDING B.V., priority 2015, published 2017).
Not every detail of the peptide structures is certain; ends, links or a residue may be inferred. For at least one compound, name, drawing or mass did not settle the structure. Some entries repeat one wording, which the source may state once for all of them.

How the values were obtained:
[1] = tested on: E. faecium E980; test: BioScreen growth assay for E. faecium E980; format: cell-based; details: 5 μM
Procedure: (§1) A BioScreen C instrument (Oy Growth Curves AB, Helsinki, Finland) was used to monitor effects of the compounds (6), (10), and (12) and the effect of compound (24) with R1-group (e), or Comparative compound B (nisin) on E. faecium growth (each compound administered at a fixed concentration 5 μM). E. faecium strains were inoculated at an initial OD660 of 0.05 into 300 μl TSB containing 1% DMSO and 1% glucose or into the same medium containing the antibiotic compounds at a final concentration of 5 μM. […]
(§2) The E. faecium strains used in these experiments are E. faecium E745 (vancomycin-ampicillin resistant hospital outbreak strain), E. faecium E980 (vancomycin-ampicillin susceptible human commensal isolate), E. Faecium E1133 (vancomycin-ampicillin resistant hospital outbreak strain), and E. faecium E1162 (vancomycin-susceptible ampicillin-resistant clinical isolate). The BioScreen growth assays for each strain was determined for the compounds (6), (10), (12) and also for compound (24) with R1-group (e) as well as nisin (Comparative compound B) and compared to non-treated strains, the results being shown in the Tables 9 to 12 below.

[2] = tested on: E. faecium E1162; test: BioScreen growth assay for E. faecium E1162; format: cell-based; details: 5 μM
Procedure: as §1, §2

[3] = Lipid II-binding in model membranes (carboxyfluorescein efflux from LUVs); format: biochemical
Procedure: Large unilamellar vesicles (LUVs), composed of 1,2-dioleoyl-sn-glycero-3-phosphocholine (DOPC) spiked with 0.2% lipid II, were loaded with carboxyfluorescein (CF). The CF efflux was monitored by measuring the increase in fluorescence intensity at 515 nm, with excitation at 492 nm. In a cuvette, a solution (1 mL) of CF-loaded vesicles (20 μM final concentration) in buffer (Tris.HCl, pH 7.0 containing 100 mM NaCl) was prepared and the relevant final concentration of compounds (6), (10), and (12), and also compound (24) with R1-group (e), were added and the mixture was stirred for 1 min and the fluorescence was recorded (A0). After ca. 10 seconds, nisin (comparative compound B) was added (5 nM final concentration) and the fluorescence was followed until it stabilized, then recorded (Astable). Total membrane leakage was induced by the addition of Triton-X100 (final concentration 0.1%) and the fluorescence was recorded (Atotal). The percentile values were calculated by: […]

For `C=C1NC(=O)[C@H]([C@@H](C)CC)NC(=O)[C@H](NC(=O)C(=CC)NC(=O)[C@@H](N)[C@@H](C)CC)CSC[C@@H](C(=O)N[C@H]2C(=O)N3CCC[C@H]3C(=O)NCC(=O)N[C@H](C(=O)N[C@@H](CCCCN)C(=O)NCCCn3cc(CNC(=O)c4ccc(-c5ccc(-c6ccccc6)cc5)cc4)nn3)CS[C@H]2C)NC(=O)[C@H](CC(C)C)NC1=O` [Compound (24) with R1-group (e)], which OD600 ([1]; time 0 h) is on record?
Its OD600 is 0.01733.

What about the OD600 ([1]; time 4 h) of the same molecule?
The OD600 was 0.02233.

And the OD600 ([1]; time 8 h)?
Its OD600 is 0.072.

And the OD600 ([1]; time 12 h)?
The OD600 was 0.2697.

And the OD600 ([1]; time 16 h)?
The OD600 was 0.3667.

And the OD600 ([2]; time 0 h)?
Its OD600 is 0.01867.

And the OD600 ([2]; time 4 h)?
Its OD600 is 0.02733.

And the OD600 ([2]; time 8 h)?
Its OD600 is 0.09533.

What about the OD600 ([2]; time 12 h) of the same molecule?
Its OD600 is 0.3783.

And the OD600 ([2]; time 16 h)?
Its OD600 is 0.397.

What about the “dye leakage on treatment with the compound alone” value ([3]; CF-loaded DOPC LUVs with 0.2% lipid II) of the same molecule?
Its value is “did not show any detectable dye leakage”.

What about the “competition assay: inhibition of nisin induced dye leakage” value ([3]; equimolar concentrations with nisin (5 nM)) of the same molecule?
The value was “inhibited dye leakage at equimolar concentrations”.
